Test results taken from US10392363B2, “Methods for treating protozoan infections” (Neoculi Pty Ltd., priority 2014, dated 2019).
Some results were stated once for a whole list of compounds, not compound by compound.

Columns and labels:
[1] = Microsomal stability, human; assay type: in vitro ADME; settings: human liver microsomes, 1 μM
Method: (§1) Incubation methods: The metabolic stability assay was performed by incubating each test compound (at 1 μM) with human and mouse liver microsomes (Xenotech, Lot#1210057 and 1310211, respectively) at 37° C. and 0.4 mg/mL protein concentration. The metabolic reaction was initiated by the addition of an NADPH-regenerating system (i.e. NADPH is the cofactor required for CYP450-mediated metabolism) and quenched at various time points over a 60 minute incubation period by the addition of acetonitrile containing diazepam as internal standard. Control samples (containing no NADPH) were included (and quenched at 2, 30 and 60 minutes) to monitor for potential degradation in the absence of cofactor. Analytical conditions: Instrument: Waters Micromass Xevo G2 QTOF coupled to a Waters Acquity UPLC; Detection: Positive electrospray ionisation under MSE mode; Cone Voltage 30 V; Column: Ascentis Express Amide column (50×2.1 mm, 2.7 μm); LC conditions: Gradient cycle time: 4 minutes; Injection volume: 5 μL; Flow rate: 0.4 mL/min; Mobile phase: Acetonitrile-water gradient with 0.05% formic acid Metabolite; Identification: A metabolite screen was not included in this study, however, since data was acquired using MSE mode, which allows for the simultaneous acquisition of low and high collision energy MS spectra, a post-hoc metabolite search may be conducted at a later date if warranted. […]

[2] = Microsomal stability, mouse; assay type: in vitro ADME; settings: mouse liver microsomes, 1 μM
Method: as §1

giardia = giardia treatment; cited from earlier work

Q: For `Cc1ccc(/C=N/Nc2cc(N/N=C/c3ccc(C)cc3)nc(N)n2)cc1` [NCL195, 4,6-bis(2-((E)-4-methylbenzylidene)hydrazinyl)pyrimidin-2-amine], which “predicted hepatic extraction ratio (EH)” value [1] is on record?
A: Its value is < 0.3.

Q: And the “predicted hepatic extraction ratio (EH)” value [2]?
A: The value was < 0.3.

Q: For `CC(=O)Oc1ccccc1C(=O)Nc1ncc([N+](=O)[O-])s1` [nitazoxanide], which median efficacy (giardia) is on record?
A: Its median efficacy is “less than 90%”.
